Source: PubChem BioAssay AID1259254 (NCATS, 2017)
Purpose: 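Finding genes that stop cells copying their DNA twice in one cycle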 (primary screen). System: human HCT116 colorectal cancer cells. Reagents: single siRNA against human genes. Time to read-out: 3 days. Measurement: 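Nuclei stained with Hoechst and imaged; cell-cycle phase assigned by DNA content; G2 share scaled per plate, non-targeting siRNA 0%, GMNN siRNA 100%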. Scale: G2 robust z-score and G2 cells, % of GMNN control: higher = more G2 cells, more excess DNA replication; raw share of cells in G2: higher = larger share of cells with G2 DNA content. Hit rule: 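Active siRNAs have a G2 robust z of 5 or more median absolute deviations over the median, which in these data means about 38% or higher of GMNN control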.
In all, the deposit lists about 59,000 reagents; below is a random part of them. About 1,550 of them (2.6%) count as active. 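G2 share is only a proxy for re-replication; each gene was hit by three separate siRNAs, and active genes were retested.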 The raw values are shown without normalisation. Reagents against one gene are numbered here. No sequences are given here. Not stated in the record: the amount of reagent.

gene symbol	reagent	G2 robust z-score	G2 cells, % of GMNN control	raw share of cells in G2 (%)	activity call
PLIN4	1	-0.704	-1.98	3.17	inactive
PLIN4	2	-0.577	-1.09	2.96	inactive
PLIN4	3	-0.018	2.84	4.21	inactive
PNPLA3	1	0.905	9.34	9.32	inactive
PNPLA3	2	-0.628	-1.45	4.25	inactive
PNPLA3	3	0.556	6.88	6.69	inactive
ZNF234	1	1.83	15.8	8.79	inactive
ZNF234	2	-0.351	0.494	6.21	inactive
ZNF234	3	0.226	4.56	5.25	inactive
LYRM2	1	0.355	5.47	6.5	inactive
LYRM2	2	-0.919	-3.5	2.79	inactive
LYRM2	3	0.269	4.86	4.57	inactive
ANK3	1	-1.15	-5.11	2.09	inactive
ANK3	2	-0.917	-3.48	3.53	inactive
ANK3	3	0.0532	3.34	6.26	inactive
RCCD1	1	0.75	8.25	5.54	inactive
RCCD1	2	2.51	20.6	12.8	inactive
RCCD1	3	0.902	9.32	5.92	inactive
TLCD5	1	-0.694	-1.91	2.88	inactive
TLCD5	2	0.779	8.45	6.02	inactive
TLCD5	3	1.95	16.7	8.51	inactive
WDR37	1	-1.01	-4.1	3.38	inactive
WDR37	2	3.21	25.5	14.7	inactive
WDR37	3	-0.399	0.161	3.23	inactive
HIBADH	1	3.53	27.8	17.5	inactive
HIBADH	2	-0.889	-3.29	3.06	inactive
HIBADH	3	-0.484	-0.436	3.72	inactive
CRACDL	1	0.988	9.92	7.39	inactive
CRACDL	2	-0.58	-1.12	2.77	inactive
CRACDL	3	-0.577	-1.09	3.75	inactive
CCDC13-AS2	1	-0.249	1.22	3.58	inactive
CCDC13-AS2	2	1.55	13.9	9.25	inactive
CCDC13-AS2	3	0.578	7.04	5.59	inactive
CCR8	1	1.2	11.4	9.92	inactive
CCR8	2	3.01	24.1	12.9	inactive
CCR8	3	-1.01	-4.1	2.01	inactive
NTMT2	1	-0.948	-3.71	2.59	inactive
NTMT2	2	-0.321	0.711	3.13	inactive
NTMT2	3	2.3	19.1	9.74	inactive
ATAD3C	1	0.526	6.67	7.14	inactive
ATAD3C	2	0.311	5.16	6.87	inactive
ATAD3C	3	-1.22	-5.62	3.28	inactive
EYA3	1	5.22	39.7	20.4	active
EYA3	2	-0.857	-3.06	2.57	inactive
EYA3	3	2.42	20	12.5	inactive
LEPR	1	-0.559	-0.968	2.88	inactive
LEPR	2	0.123	3.84	6.99	inactive
LEPR	3	-1.24	-5.73	3.15	inactive

Records above whose target name starts with T or t:
gene symbol	reagent	G2 robust z-score	G2 cells, % of GMNN control	raw share of cells in G2 (%)	activity call
TLCD5	1	-0.694	-1.91	2.88	inactive
TLCD5	2	0.779	8.45	6.02	inactive
TLCD5	3	1.95	16.7	8.51	inactive
